Measured values from paper PMC7248865.
The exact form of at least one protein or probe is not confirmed. Weaker means in comparison with the reference protein, sequence or condition of that experiment.

By UniProt entry, the sequences of proteins in these tests, tags left out. Residues count along the entry.
UniProt P02769, 25-607: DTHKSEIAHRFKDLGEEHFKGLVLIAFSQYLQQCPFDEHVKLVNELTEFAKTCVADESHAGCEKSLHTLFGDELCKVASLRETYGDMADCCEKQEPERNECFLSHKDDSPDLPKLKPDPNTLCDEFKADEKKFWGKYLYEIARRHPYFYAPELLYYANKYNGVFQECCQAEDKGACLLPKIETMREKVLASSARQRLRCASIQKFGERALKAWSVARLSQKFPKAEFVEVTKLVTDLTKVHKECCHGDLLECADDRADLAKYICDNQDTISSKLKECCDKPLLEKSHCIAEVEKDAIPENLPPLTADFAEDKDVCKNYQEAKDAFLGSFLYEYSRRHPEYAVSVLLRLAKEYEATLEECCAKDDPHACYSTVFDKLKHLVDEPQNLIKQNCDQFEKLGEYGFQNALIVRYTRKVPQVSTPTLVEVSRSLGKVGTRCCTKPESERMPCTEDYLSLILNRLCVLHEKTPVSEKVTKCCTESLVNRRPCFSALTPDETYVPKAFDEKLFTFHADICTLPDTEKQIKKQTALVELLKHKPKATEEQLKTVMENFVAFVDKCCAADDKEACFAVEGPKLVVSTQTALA

Experiments:
BSA = BSA (UniProt P02769); assay: graphene FET (drain current); conditions: 1 pg/mL BSA, ID 47.34 uA vs 338.64 uA for ADH; 5'-amine; PBS (or human serum), 10 min incubation per concentration, PBS washes; pH and temperature not stated; single-stranded DNA
glucose oxidase (GOx) = assay: graphene FET (drain current); conditions: in place of ADH, ID 25.55 uA vs 338.64 uA for ADH, called non-specific; 5'-amine; PBS (or human serum), 10 min incubation per concentration, PBS washes; pH and temperature not stated; single-stranded DNA

Sequence: TCACGTGCATGATAGACGGCGAAGCCGTCGAGTTGCTGTGTGCCGATGCACGTGA [ADH-specific aptamer]
- binding result (BSA): binds more weakly
- binding result (glucose oxidase (GOx)): binds more weakly
